Measured values from patent US8895497B2, “Cathepsin S inhibitors” (DCB-USA, LLC, priority 2009, dated 2014).
Some of these results come from one statement about several compounds together.

Protein sequences, listed by entry. Tags and fused reporters are not part of them. Residues count along the entry.
UniProt P25774, 115-331: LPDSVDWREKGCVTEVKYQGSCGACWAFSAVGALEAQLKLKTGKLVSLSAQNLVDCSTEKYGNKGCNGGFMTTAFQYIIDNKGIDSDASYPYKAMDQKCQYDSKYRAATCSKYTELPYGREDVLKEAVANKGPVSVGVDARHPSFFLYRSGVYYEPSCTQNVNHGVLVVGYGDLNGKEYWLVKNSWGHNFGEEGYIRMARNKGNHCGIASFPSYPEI

Target: T1, recombinant cathepsin S (Homo sapiens, UniProt P25774)
T1 construct: made in house; host or cells: E. coli (pET23a)
Assay: Cathepsin S assay (Z-VVR-AMC fluorogenic substrate)
Type: biochemical
Settings: for IC50: 37° C.

SMILES | inhibitory activity (cathepsin S) | IC50 [nM]
COc1ccc(NC(=O)C(=O)C(COCc2ccccc2)NC(=O)C(CC2CCCCC2)NC(=O)N2CCOCC2)cc1 (stereo in doubt) [Compound 79, N4-[(1R)-2-[1-[(benzyloxy)methyl]-3-(4-methoxyanilino)-2,3-dioxopropyl]amino-1-(cyclohexylmethyl)-2-oxoethyl]-4-morpholinecarboxamide] | exhibited inhibitory activity | < 50
CC(C)C[C@H](NC(=O)[C@H](Cc1ccccc1)NC(=O)c1cnccn1)C(=O)NCC#N [Compound 87] | exhibited inhibitory activity | –
CCOC(=O)CNC(=O)C(=O)C(COCc1ccccc1)NC(=O)[C@H](CC1CCCCC1)NC(=O)c1ccc([N+](=O)[O-])cc1OC (stereo partly shown) [Compound 29] | exhibited inhibitory activity | < 50
CC(C)C[C@H](NC(=O)[C@H](Cc1ccccc1)NC(=O)c1cnccn1)C(=O)N(C)N(C)C#N [Compound 99, N2-[1-benzyl-2-(1-[(2-cyano-1,2-dimethylhydrazino)carbonyl]-3-methylbutylamino)-2-oxoethyl]-2-pyrazinecarboxamide] | exhibited inhibitory activity | < 50
O=C(Nc1ccc2c(c1)OCCO2)C(=O)C(COCc1ccccc1)NC(=O)[C@H](CC1CCCCC1)NC(=O)N1CCOCC1 (stereo partly drawn) [Compound 77, N4-[(1R)-2-[1-[(benzyloxy)methyl]-3-(4-methoxyanilino)-2,3-dioxopropyl]amino-1-(cyclohexylmethyl)-2-oxoethyl]-4-morpholinecarboxamide] | exhibited inhibitory activity | < 50
CC(C)C[C@@H](/C=N/NC(=O)c1ccccc1)NC(=O)[C@H](Cc1ccccc1)NC(=O)c1cnccn1 [Compound 98] | exhibited inhibitory activity | –
CC(C)C[C@@H](CO)NC(=O)[C@H](Cc1ccccc1)NC(=O)c1cnccn1 [Compound 83] | exhibited inhibitory activity | –
CCOC(=O)CNC(=O)C(=O)C(COCc1ccccc1)NC(=O)[C@H](CC1CCCCC1)NC(=O)C1CCC1 (stereo partly shown) [Compound 40] | exhibited inhibitory activity | < 50
CCOC(=O)CNC(=O)C(=O)C(COCc1ccccc1)NC(=O)[C@H](CC1CCCCC1)NC(=O)/C=C/c1ccccc1[N+](=O)[O-] (stereo partly shown) [Compound 32] | exhibited inhibitory activity | < 50
CCOC(=O)CNC(=O)C(=O)C(COCc1ccccc1)NC(=O)[C@H](CC1CCCCC1)NC(=O)c1cccc2c1-c1ccccc1C2=O (stereo partly shown) [Compound 42] | exhibited inhibitory activity | < 50
CCOC(=O)CNC(=O)C(=O)C(COCc1ccccc1)NC(=O)[C@H](CC1CCCCC1)NC(=O)c1cccc(OC)c1 (stereo partly shown) [Compound 46] | exhibited inhibitory activity | < 50
CCOC(=O)CNC(=O)C(=O)C(COCc1ccccc1)NC(=O)[C@H](CC1CCCCC1)NC(=O)C1CC1 (stereo partly shown) [Compound 39] | exhibited inhibitory activity | < 50
COc1ccc(CNC(=O)[C@H](CC(C)C)NC(=O)[C@H](Cc2ccccc2)NC(=O)c2cnccn2)cc1 [Compound 90] | exhibited inhibitory activity | –
O=C(CC[C@H](CCc1ccccc1)NC(=O)[C@H](Cc1ccccc1)NC(=O)c1cnccn1)NCc1ccccc1 [Compound 85] | exhibited inhibitory activity | –
CCOC(=O)CNC(=O)C(=O)C(COCc1ccccc1)NC(=O)[C@H](CC1CCCCC1)NC(=O)c1ccc(-c2ccc([N+](=O)[O-])cc2)o1 (stereo partly shown) [Compound 53] | exhibited inhibitory activity | < 50
CCOC(=O)CNC(=O)C(=O)C(COCc1ccccc1)NC(=O)C(CC1CCCCC1)NC(=O)c1cccc(C)c1[N+](=O)[O-] (stereo in doubt) [Compound 20, Ethyl 2-[4-(benzyloxy)-3-((2R)-3-cyclohexyl-2-[(3-methyl-2-nitrobenzoyl)amino]propanoylamino)-2-oxobutanoyl]aminoacetate] | exhibited inhibitory activity | < 50
CC(C)C[C@H](NC(=S)Nc1ccccc1)C(=O)NCC#N [Compound 95] | exhibited inhibitory activity | –
CCOC(=O)CNC(=O)C(=O)C(COCc1ccccc1)NC(=O)[C@H](CC1CCCCC1)NC(=O)c1ccc([N+](=O)[O-])cc1 (stereo partly shown) [Compound 60] | exhibited inhibitory activity | –
CCOC(=O)CNC(=O)C(=O)C(COCc1ccccc1)NC(=O)[C@H](CC1CCCCC1)NC(=O)C1CCCCCC1 (stereo partly shown) [Compound 44] | exhibited inhibitory activity | < 50

SMILES | inhibitory activity (cathepsin S) | IC50 [nM]
CCOC(=O)CNC(=O)C(=O)C(COCc1ccccc1)NC(=O)[C@H](CC1CCCCC1)NC(=O)c1ccccc1Cc1ccccc1 (stereo partly shown) [Compound 11] | exhibited inhibitory activity | < 50
CCOC(=O)CNC(=O)C(=O)C(COCc1ccccc1)NC(=O)[C@H](CC1CCCCC1)NC(=O)c1ccccc1OC (stereo partly shown) [Compound 33] | exhibited inhibitory activity | < 50
O=C(NC1CCCC1)C(=O)C(COCc1ccccc1)NC(=O)C(CC1CCCCC1)NC(=O)N1CCOCC1 (stereo in doubt) [Compound 74, N4-[(1R)-2-[1-[(benzyloxy)methyl]-3-(cyclopentylamino)-2,3-dioxopropyl]amino-1-(cyclohexylmethyl)-2-oxoethyl]-4-morpholinecarboxamide] | exhibited inhibitory activity | < 50
CC(C)OCCCNC(=O)C(=O)C(COCc1ccccc1)NC(=O)C(CC1CCCCC1)NC(=O)N1CCOCC1 (stereo in doubt) [Compound 68, N4-[(1R)-2-(1-[(benzyloxy)methyl]-3-[(3-isopropoxypropyl)amino]-2,3-dioxopropylamino)-1-(cyclohexylmethyl)-2-oxoethyl]-4-morpholinecarboxamide] | exhibited inhibitory activity | < 50
CCOC(=O)CNC(=O)C(=O)C(COCc1ccccc1)NC(=O)C(CC1CCCCC1)NC(=O)c1ccc(Br)o1 (stereo in doubt) [Compound 5, Ethyl 2-(4-(benzyloxy)-3-[(2R)-(2-[(5-bromo-2-furyl)carbonyl]amino-3-cyclohexylpropanoyl)amino]-2-oxobutanoylamino)acetate] | exhibited inhibitory activity | < 50
O=C(Nc1ccc2ccccc2c1)C(=O)C(COCc1ccccc1)NC(=O)[C@H](CC1CCCCC1)NC(=O)N1CCOCC1 (stereo partly drawn) [Compound 76, N4-[(1R)-2-[1-[(benzyloxy)methyl]-3-(5,8-dihydro-2-naphthalenylamino)-2,3-dioxopropyl]amino-1-(cyclohexylmethyl)-2-oxoethyl]-4-morpholinecarboxamide] | exhibited inhibitory activity | < 50
CCOC(=O)CNC(=O)C(=O)C(COCc1ccccc1)NC(=O)[C@H](CC1CCCCC1)NC(=O)c1cnccn1 (stereo partly shown) [Compound 34] | exhibited inhibitory activity | < 50
CC(C)C[C@H](NC(=O)Nc1ccccc1)C(=O)NCC#N [Compound 94] | exhibited inhibitory activity | –
CC/C=C/C(=O)N[C@@H](CC1CCCCC1)C(=O)NC(COCc1ccccc1)C(=O)C(=O)NCC(=O)OCC (stereo partly shown) [Compound 6] | exhibited inhibitory activity | < 50
CCOC(=O)CNC(=O)C(=O)C(COCc1ccccc1)NC(=O)[C@H](CC1CCCCC1)NC(=O)c1ccc(-c2cccc(C(F)(F)F)c2)o1 (stereo partly shown) [Compound 54] | exhibited inhibitory activity | < 50
CCOC(=O)CNC(=O)C(=O)C(COCc1ccccc1)NC(=O)C(CC1CCCCC1)NC(=O)c1cc(Cl)ccc1[N+](=O)[O-] (stereo in doubt) [Compound 35, Ethyl 2-[4-(benzyloxy)-3-((2R)-2-[(5-chloro-2-nitrobenzoyl)amino]-3-cyclohexylpropanoylamino)-2-oxobutanoyl]aminoacetate] | exhibited inhibitory activity | < 50
CCOC(=O)CNC(=O)C(=O)C(COCc1ccccc1)NC(=O)[C@H](CC1CCCCC1)NC(=O)C1Cc2ccccc2CN1 (stereo partly shown) [Compound 41] | exhibited inhibitory activity | < 50
CCOC(=O)CNC(=O)C(=O)C(COCc1ccccc1)NC(=O)C(CC1CCCCC1)NC(=O)c1cccc(F)c1F (stereo in doubt) [Compound 26, Ethyl 2-[4-(benzyloxy)-3-((2R)-3-cyclohexyl-2-[(2,3-difluorobenzoyl)amino]propanoylamino)-2-oxobutanoyl]aminoacetate] | exhibited inhibitory activity | < 50
CCOC(=O)CNC(=O)C(=O)C(COCc1ccccc1)NC(=O)[C@H](CC1CCCCC1)NC(=O)C#Cc1ccccc1 (stereo partly shown) [Compound 17] | exhibited inhibitory activity | < 50
COC(=O)C(NC(=O)C(=O)C(COCc1ccccc1)NC(=O)C(CC1CCCCC1)NC(=O)N1CCOCC1)C(C)C (stereo in doubt) [Compound 69, Methyl 2-[4-(benzyloxy)-3-((2R)-3-cyclohexyl-2-[(morpholinocarbonyl)amino]propanoylamino)-2-oxobutanoyl]amino-3-methylbutanoate] | exhibited inhibitory activity | < 50
CC(C)C[C@H](NC(=O)[C@H](Cc1ccccc1)NC(=O)c1cnccn1)C(N)=O [Compound 88] | exhibited inhibitory activity | –
CC(C)C[C@H](NC(=O)[C@H](Cc1ccccc1)NC(=O)c1cnccn1)C(=O)NCc1ccccc1 [Compound 89] | exhibited inhibitory activity | –
CCOC(=O)CNC(=O)C(=O)C(COCc1ccccc1)NC(=O)C(CC1CCCCC1)NC(=O)C(C)Oc1ccccc1 (stereo in doubt) [Compound 37, Ethyl 2-[4-(benzyloxy)-3-((2R)-3-cyclohexyl-2-[(2-phenoxypropanoyl)amino]propanoylamino)-2-oxobutanoyl]aminoacetate] | exhibited inhibitory activity | < 50
